This note sets out measurements from article PMC5216914.

The chains behind the UniProt entries cited, without tags or fusion partners.
UniProt Q9JLM9: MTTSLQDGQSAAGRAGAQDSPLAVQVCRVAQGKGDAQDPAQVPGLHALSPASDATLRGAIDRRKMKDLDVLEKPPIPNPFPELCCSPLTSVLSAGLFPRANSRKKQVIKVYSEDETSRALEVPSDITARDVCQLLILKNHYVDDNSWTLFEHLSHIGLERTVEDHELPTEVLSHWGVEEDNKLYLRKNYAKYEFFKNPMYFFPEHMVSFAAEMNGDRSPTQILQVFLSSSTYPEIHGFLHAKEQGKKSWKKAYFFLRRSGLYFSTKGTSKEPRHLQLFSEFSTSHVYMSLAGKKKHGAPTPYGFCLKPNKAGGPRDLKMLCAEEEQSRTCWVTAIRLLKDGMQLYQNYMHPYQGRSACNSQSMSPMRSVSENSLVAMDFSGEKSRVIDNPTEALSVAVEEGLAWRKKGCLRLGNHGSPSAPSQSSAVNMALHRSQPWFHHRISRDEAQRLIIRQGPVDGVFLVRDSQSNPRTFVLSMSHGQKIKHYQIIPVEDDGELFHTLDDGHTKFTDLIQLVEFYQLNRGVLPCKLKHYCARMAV

No constants are given. Whether binding was seen depends on the method and setting. In cells and extracts the contact can be indirect. Some binding calls cover weakened binding; strength is not graded here.

The target of experiment [1] is GST-vSrc-SH2 fusion protein (UniProt P00524). Put plainly: pull-down; GST-vSrc-SH2 fusion protein incubated with retinal lysates of light-adapted (300 lux, 30 min) Nrl-/- mice; GST pull-down, blot with anti-Grb14 and anti-GST; only the target purified.
Experiment [2] has the same target. Put plainly: condition: only retinal lysates of dark-adapted mice; pull-down; GST-vSrc-SH2 fusion protein incubated with retinal lysates of dark-adapted Nrl-/- mice; GST pull-down, blot with anti-Grb14 and anti-GST; only the target purified.

As for “growth factor receptor-bound protein 14 (Grb14) (from UniProt Q9JLM9 1-538)”, the binding result is listed as “binds” in experiment [1] and “no binding” in experiment [2].
